The source of these data is publication PMC10185810.

The chains behind the UniProt entries cited, without tags or fusion partners.
UniProt P46937: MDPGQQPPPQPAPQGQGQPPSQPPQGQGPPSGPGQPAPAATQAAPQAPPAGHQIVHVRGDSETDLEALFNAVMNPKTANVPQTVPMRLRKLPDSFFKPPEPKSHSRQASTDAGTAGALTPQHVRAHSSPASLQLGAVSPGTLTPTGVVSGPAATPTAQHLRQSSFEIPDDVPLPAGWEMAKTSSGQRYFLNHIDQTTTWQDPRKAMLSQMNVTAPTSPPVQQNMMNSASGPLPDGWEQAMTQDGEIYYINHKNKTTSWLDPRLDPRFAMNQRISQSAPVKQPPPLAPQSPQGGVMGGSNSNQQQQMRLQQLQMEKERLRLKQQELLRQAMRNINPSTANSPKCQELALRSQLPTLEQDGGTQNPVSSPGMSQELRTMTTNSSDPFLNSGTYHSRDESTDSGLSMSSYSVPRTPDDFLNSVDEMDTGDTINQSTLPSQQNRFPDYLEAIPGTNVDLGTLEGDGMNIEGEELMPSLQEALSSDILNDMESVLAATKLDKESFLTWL

No constants are given. Whether binding was seen depends on the method and setting. In cells and extracts the contact can be indirect. Some entries that bind do so weakly or less than the wild type. Sequences can lack the tags named with a protein.

The target of the assay is T1, Flag-tagged full-length CNN2 (H2-calponin) (UniProt Q99439).
T1 sequence: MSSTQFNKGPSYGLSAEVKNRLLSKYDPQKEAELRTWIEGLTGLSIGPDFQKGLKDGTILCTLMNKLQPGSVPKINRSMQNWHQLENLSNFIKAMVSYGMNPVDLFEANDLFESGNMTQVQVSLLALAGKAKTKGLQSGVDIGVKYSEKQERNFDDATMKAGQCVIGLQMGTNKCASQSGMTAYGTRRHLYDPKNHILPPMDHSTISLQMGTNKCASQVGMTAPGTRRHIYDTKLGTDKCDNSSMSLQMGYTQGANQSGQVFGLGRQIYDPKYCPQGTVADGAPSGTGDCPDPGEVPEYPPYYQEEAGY
The assay can be described thus: co-IP; total proteins of RKO cells overexpressing Flag-tagged full-length CNN2, immunoprecipitated with an anti-Flag antibody, Western blot. (In western blotting, separated proteins are transferred to a membrane and probed.)

For “Yes kinase-associated protein 1 (YAP1) (from UniProt P46937 1-504)”, the binding result is on record as “binds”.
